In the supplement of paper PMC7666118:
The list shows a part of the results.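 How the source made its calls: active = dose-dependent thermal stabilisation significant by F-test of dose-response against flat model at 10% FDR; inactive = not significant.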

By UniProt entry, the sequences of proteins in these tests, tags left out. Where a name states a change or a piece, a line headed by the entry shows the natural chain unless it says otherwise.
UniProt Q9BTV5: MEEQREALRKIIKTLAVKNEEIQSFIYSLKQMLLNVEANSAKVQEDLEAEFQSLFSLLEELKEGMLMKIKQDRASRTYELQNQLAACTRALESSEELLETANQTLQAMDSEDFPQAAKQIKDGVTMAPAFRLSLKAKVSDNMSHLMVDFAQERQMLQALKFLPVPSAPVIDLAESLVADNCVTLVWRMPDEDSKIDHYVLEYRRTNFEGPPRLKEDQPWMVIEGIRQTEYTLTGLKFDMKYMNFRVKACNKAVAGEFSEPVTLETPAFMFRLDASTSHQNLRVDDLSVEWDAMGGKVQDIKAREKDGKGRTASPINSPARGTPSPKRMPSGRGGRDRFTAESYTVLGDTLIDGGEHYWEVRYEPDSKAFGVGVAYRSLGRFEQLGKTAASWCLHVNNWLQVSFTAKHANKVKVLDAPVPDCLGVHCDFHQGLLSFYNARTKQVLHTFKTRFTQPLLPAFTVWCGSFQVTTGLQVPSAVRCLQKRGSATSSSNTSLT
UniProt Q96E09: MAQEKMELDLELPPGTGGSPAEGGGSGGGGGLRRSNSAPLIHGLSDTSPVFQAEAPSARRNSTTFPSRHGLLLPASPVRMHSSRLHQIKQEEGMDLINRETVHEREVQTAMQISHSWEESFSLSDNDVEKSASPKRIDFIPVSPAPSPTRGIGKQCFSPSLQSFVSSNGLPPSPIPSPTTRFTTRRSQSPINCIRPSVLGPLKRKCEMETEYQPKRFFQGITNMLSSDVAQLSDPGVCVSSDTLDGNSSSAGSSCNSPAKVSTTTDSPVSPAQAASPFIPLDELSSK
UniProt Q9UKT4: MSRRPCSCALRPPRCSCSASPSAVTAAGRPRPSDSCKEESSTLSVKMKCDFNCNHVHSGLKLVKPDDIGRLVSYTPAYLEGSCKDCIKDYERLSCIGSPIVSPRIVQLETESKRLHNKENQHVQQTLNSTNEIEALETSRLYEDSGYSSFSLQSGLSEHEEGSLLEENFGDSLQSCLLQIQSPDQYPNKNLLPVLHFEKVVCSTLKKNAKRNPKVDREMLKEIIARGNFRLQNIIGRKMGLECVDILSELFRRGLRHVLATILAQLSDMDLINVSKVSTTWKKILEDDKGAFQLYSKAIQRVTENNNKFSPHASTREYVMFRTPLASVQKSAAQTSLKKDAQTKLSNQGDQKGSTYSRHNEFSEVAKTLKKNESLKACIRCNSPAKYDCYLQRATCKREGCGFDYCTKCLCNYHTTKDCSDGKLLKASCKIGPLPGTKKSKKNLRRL
UniProt P10109: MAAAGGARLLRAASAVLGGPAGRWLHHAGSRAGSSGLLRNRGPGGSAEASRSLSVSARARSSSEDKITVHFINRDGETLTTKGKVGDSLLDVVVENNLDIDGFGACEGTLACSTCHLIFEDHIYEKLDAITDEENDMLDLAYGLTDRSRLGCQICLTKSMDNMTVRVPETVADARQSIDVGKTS
UniProt Q9H9T3: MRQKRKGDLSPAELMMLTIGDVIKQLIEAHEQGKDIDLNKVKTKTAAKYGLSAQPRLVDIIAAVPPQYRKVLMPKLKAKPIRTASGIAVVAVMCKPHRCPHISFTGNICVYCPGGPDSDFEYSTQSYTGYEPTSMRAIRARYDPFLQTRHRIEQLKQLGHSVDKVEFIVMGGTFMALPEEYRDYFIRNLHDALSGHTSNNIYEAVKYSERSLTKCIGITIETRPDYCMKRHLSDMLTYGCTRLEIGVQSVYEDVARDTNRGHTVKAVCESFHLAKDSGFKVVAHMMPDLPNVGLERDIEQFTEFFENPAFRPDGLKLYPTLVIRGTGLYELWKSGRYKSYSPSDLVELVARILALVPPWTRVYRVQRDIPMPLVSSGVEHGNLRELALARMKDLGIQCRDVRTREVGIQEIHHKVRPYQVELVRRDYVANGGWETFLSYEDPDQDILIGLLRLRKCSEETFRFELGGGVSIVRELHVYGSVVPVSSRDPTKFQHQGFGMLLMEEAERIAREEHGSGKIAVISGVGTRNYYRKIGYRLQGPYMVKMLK
UniProt Q8NFG4: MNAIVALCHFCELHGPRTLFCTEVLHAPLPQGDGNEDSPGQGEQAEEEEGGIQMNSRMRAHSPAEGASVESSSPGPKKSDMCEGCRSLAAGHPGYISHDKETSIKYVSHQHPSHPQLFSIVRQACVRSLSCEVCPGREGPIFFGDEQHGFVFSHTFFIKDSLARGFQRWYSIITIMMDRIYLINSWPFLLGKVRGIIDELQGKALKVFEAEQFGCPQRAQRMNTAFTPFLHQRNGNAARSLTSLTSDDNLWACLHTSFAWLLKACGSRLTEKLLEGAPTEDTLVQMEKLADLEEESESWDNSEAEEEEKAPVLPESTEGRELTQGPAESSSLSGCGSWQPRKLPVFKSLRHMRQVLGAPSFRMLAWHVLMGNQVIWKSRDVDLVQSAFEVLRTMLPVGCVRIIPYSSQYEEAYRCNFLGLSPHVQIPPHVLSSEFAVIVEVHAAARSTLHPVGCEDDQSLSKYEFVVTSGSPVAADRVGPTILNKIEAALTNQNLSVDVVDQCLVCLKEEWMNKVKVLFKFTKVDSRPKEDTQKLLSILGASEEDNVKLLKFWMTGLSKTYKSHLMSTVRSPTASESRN
UniProt Q96ME1: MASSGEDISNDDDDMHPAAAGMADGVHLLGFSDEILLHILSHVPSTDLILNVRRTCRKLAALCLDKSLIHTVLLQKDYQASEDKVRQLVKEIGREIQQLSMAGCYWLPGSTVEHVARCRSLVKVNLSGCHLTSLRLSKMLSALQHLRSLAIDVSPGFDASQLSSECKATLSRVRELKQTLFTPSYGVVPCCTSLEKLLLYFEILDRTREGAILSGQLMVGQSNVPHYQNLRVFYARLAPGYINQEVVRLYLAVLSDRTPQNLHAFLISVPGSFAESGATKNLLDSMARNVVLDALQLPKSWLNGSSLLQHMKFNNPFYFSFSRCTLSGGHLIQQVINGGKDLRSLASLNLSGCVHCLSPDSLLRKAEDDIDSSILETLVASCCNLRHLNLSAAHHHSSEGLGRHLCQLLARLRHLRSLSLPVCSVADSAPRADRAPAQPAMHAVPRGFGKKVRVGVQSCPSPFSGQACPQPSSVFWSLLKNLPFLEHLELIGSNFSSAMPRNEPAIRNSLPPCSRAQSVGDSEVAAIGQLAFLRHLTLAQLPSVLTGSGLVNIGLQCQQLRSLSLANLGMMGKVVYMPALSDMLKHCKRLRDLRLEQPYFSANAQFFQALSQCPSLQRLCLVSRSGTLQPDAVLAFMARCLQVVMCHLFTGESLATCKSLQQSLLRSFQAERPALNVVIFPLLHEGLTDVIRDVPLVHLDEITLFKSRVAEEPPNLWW
UniProt Q13542: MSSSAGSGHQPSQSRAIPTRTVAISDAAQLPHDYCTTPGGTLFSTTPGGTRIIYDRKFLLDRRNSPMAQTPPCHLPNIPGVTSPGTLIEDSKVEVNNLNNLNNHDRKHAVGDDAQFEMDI
UniProt Q5HYJ3: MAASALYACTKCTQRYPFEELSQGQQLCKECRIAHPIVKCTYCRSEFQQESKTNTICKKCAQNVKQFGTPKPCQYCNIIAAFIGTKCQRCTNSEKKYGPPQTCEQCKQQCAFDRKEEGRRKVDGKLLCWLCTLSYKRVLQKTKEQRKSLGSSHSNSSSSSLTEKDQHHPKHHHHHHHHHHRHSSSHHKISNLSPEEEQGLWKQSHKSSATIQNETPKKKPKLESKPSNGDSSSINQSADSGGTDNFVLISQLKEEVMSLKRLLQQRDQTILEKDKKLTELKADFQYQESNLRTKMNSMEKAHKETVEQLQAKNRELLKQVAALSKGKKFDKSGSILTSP
UniProt Q5VWP2: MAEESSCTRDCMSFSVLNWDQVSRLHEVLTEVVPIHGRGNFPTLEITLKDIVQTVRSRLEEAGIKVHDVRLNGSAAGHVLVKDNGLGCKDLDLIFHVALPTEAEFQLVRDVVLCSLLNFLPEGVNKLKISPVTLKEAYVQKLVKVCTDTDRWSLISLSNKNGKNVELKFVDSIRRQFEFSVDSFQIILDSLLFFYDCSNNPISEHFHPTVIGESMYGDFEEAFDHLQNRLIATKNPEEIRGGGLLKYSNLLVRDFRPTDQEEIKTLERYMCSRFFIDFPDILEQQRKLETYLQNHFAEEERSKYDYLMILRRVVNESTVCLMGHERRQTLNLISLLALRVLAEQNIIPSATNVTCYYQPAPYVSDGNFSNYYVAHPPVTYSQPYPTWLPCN
UniProt P41212: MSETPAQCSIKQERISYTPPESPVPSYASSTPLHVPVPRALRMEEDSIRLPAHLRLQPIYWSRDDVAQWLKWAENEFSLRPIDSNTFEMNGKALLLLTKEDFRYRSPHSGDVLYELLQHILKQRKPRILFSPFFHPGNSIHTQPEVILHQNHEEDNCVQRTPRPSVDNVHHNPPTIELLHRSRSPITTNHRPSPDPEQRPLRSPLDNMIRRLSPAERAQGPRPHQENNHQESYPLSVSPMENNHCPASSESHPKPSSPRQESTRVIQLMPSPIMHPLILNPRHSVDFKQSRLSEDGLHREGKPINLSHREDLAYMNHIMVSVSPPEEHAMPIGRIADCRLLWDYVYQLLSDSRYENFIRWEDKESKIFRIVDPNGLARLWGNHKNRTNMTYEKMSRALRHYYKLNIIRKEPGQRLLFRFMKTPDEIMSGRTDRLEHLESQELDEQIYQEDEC
UniProt Q96JJ3: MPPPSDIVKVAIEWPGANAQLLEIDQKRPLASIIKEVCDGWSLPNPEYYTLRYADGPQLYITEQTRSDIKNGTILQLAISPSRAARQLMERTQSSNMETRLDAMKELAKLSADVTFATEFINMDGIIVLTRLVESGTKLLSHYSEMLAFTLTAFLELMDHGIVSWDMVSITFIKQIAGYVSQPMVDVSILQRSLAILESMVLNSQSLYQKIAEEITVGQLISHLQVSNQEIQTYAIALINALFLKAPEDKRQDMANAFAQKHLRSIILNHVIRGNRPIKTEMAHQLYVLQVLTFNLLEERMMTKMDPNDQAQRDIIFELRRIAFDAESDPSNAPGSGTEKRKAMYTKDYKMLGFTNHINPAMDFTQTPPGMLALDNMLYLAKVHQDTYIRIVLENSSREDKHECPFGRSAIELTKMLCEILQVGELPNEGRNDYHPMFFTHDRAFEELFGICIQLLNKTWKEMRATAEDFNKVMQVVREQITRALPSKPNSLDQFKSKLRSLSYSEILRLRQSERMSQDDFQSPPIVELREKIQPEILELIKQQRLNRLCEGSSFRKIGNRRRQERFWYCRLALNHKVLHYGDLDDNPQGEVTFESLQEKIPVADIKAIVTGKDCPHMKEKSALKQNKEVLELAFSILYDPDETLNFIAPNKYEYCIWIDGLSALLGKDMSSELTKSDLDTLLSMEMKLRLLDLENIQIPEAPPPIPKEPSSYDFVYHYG
UniProt Q9NRY5: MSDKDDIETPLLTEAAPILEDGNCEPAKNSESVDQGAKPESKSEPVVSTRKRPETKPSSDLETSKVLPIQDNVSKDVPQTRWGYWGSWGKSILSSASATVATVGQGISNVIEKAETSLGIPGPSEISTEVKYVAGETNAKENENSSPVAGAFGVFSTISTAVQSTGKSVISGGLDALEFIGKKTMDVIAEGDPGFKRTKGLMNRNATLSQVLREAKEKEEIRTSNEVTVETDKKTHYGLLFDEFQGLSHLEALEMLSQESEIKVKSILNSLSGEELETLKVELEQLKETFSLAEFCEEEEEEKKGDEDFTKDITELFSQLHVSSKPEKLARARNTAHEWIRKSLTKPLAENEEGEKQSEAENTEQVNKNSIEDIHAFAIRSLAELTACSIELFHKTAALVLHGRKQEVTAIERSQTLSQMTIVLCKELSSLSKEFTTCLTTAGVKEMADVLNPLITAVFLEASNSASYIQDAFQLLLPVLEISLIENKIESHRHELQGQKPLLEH
UniProt P23142: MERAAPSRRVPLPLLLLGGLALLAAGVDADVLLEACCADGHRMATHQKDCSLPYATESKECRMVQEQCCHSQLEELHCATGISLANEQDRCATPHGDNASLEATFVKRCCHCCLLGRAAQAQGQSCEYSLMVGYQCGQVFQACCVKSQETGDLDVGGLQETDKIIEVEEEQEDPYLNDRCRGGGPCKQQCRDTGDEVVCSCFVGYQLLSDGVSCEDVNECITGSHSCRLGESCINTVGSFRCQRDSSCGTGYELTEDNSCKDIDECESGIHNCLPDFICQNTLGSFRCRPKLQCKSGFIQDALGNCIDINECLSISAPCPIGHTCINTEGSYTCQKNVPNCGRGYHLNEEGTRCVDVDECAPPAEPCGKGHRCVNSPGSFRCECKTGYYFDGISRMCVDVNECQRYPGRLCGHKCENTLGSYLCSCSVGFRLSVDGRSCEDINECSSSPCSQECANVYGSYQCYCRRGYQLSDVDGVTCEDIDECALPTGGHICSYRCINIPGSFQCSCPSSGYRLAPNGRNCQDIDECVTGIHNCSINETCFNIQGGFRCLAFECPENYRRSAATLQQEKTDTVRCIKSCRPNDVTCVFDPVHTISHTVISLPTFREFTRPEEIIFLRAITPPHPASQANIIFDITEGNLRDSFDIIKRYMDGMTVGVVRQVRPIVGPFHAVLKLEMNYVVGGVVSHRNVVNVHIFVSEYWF

These targets were tested with Nc1nc2c(ncn2[C@@H]2O[C@H](COP(=O)(O)OP(=O)(O)OP(=O)(O)O)[C@@H](O)[C@H]2O)c(=O)[nH]1 (assay: dose-dependent thermal stabilisation call (2D-TPP, DLPTP, 10% FDR) (binary (1 = stabilised)); higher = stabilised by the compound). Conditions: system: Jurkat gel-filtered lysate; concentration range 1-500 µM.
Protocol: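 2D thermal proteome profiling in gel-filtered Jurkat E6.1 lysate (2 mg/ml) treated with NaGTP (0, 1, 10, 100, 500 uM) for 10 min at room temperature, then heated 3 min at one of 12 temperatures (42-63.9 C). Soluble protein was quantified by TMT10 MS. The value is the DLPTP call of the paper: dose-dependent thermal stabilisation over all temperatures at 10% FDR (F-test of a dose-response against a flat model); one experiment, one call per tested protein.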

Row | Target | dose-dependent thermal stabilisation call
1 | FAM111B (UniProt Q6SJ93) | inactive: 0
2 | FTO (UniProt Q9C0B1) | inactive: 0
3 | FSD1 (UniProt Q9BTV5) | active: 1
4 | FAM118B (UniProt Q9BPY3) | active: 1
5 | FIGNL1 (UniProt Q6PIW4) | inactive: 0
6 | EVL (UniProt Q9UI08) | inactive: 0
7 | FAM122A (UniProt Q96E09) | inactive: 0
8 | FUK (UniProt Q8N0W3) | inactive: 0
9 | FAM126B (UniProt Q8IXS8) | inactive: 0
10 | FOXK2 (UniProt Q01167) | active: 1
11 | FBXO5 (UniProt Q9UKT4) | inactive: 0
12 | FDX1 (UniProt P10109) | inactive: 0
13 | EHD4 (UniProt Q9H223) | active: 1
14 | EPDR1 (UniProt Q9UM22) | inactive: 0
15 | FRMD8 (UniProt Q9BZ67) | inactive: 0
16 | ELP3 (UniProt Q9H9T3) | inactive: 0
17 | FLCN (UniProt Q8NFG4) | inactive: 0
18 | EIF4G1 (UniProt Q04637) | inactive: 0
19 | ELAC1 (UniProt Q9H777) | inactive: 0
20 | FBXL18 (UniProt Q96ME1) | inactive: 0

2 entries drawn at random from the list so far, as already listed:
Row | Target | dose-dependent thermal stabilisation call
4 | FAM118B (UniProt Q9BPY3) | active: 1
3 | FSD1 (UniProt Q9BTV5) | active: 1

Further records

Row | Target | dose-dependent thermal stabilisation call
21 | EPHX2 (UniProt P34913) | inactive: 0
22 | EIF4EBP2 (UniProt Q13542) | inactive: 0
23 | FAM76B (UniProt Q5HYJ3) | inactive: 0
24 | FKBP15 (UniProt Q5T1M5) | inactive: 0
25 | FN3KRP (UniProt Q9HA64) | inactive: 0
26 | ERCC2 (UniProt P18074) | active: 1
27 | FABP5 (UniProt Q01469) | inactive: 0
28 | FUBP1 (UniProt Q96AE4) | inactive: 0
29 | FAM46C (UniProt Q5VWP2) | inactive: 0
30 | EMSY (UniProt Q7Z589) | inactive: 0
31 | ETV6 (UniProt P41212) | inactive: 0
32 | ELMO2 (UniProt Q96JJ3) | active: 1
33 | ERC1 (UniProt Q8IUD2) | inactive: 0
34 | FCHO1 (UniProt O14526) | inactive: 0
35 | FAM114A2 (UniProt Q9NRY5) | inactive: 0
36 | FAM175B (UniProt Q15018) | inactive: 0
37 | EIF1AD (UniProt Q8N9N8) | inactive: 0
38 | FBLN1 (UniProt P23142) | inactive: 0
39 | EPB41 (UniProt P11171) | inactive: 0
40 | FAM129B (UniProt Q96TA1) | active: 1
